For 2 substances, binding results are on record in patent US20080103086A1, “METHODS FOR THE TREATMENT OF DISEASES ASSOCIATED WITH THE SECRETION OF HMGB1” (priority 2006, published 2008).

Chains of the proteins cited; added tags and fusions are not shown.
UniProt P52294: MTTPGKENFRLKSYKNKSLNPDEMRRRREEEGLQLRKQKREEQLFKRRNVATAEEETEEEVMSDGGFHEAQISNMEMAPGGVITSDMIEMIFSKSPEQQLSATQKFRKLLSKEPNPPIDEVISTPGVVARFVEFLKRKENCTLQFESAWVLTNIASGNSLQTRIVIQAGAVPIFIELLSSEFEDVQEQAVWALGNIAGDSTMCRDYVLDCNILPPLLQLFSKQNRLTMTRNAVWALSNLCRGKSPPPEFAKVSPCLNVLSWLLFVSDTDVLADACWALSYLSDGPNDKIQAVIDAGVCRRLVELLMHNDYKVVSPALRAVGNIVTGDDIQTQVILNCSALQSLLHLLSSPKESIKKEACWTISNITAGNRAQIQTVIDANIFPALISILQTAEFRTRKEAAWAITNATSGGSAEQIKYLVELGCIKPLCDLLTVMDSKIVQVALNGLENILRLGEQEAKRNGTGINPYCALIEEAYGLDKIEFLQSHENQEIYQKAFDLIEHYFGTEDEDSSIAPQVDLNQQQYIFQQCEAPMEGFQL
UniProt P09429: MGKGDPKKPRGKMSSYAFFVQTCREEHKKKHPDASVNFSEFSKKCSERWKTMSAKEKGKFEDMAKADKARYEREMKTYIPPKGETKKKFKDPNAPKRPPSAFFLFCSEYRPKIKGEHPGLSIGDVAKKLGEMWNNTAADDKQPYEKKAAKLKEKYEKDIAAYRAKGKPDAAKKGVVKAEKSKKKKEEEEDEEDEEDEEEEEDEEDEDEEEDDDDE

For experiment [1], the target named is T1, GST-KAP-α1 fusion protein (human, UniProt P52294 1-538).
T1 construct: Produced in E. coli BL21, immobilized on glutathione-Sepharose 4B beads; the primers start at the ATG of the coding region; not shown: glutathione S-transferase (GST) tag encoded by vector pGEX-4T-1 (Pharmacia)
In words: GST pull-down with purified recombinant proteins, anti-His blot.

The target of the next experiment is T2, Flag-tagged KAP-α1 (human, UniProt P52294 1-538).
T2 construct: Expressed in co-transfected RAW 264.7 cells; used in co-immunoprecipitation; also called FLAG-KAP-α1; not shown: Flag tag of vector pCMV-Tag2 (Stratagene)
Kind of experiment: co-immunoprecipitation from co-transfected RAW 264.7 cells (anti-GFP and anti-Flag), Western blot. How it is done: To observe the binding of KAP protein to each mutant HMGB1 in the cells, Flag-tagged KAP-α1 and each mutant HMGB1-GFP plasmid were co-transfected into RAW 264.7 cells. Cell homogenates of transfected RAW 264.7 cells were harvested and incubated with mouse anti-Flag (M2, Sigma) and mouse anti-GFP (Santa Cruz) at 4° C. overnight. Immune complexes were collected and the membranes were blotted with anti-Flag and anti-GFP, respectively. The reciprocal experiment was also performed. GST was used as a negative control. And to test the direct binding of HMGB1 to KAP-α1, GST pull-down assay was performed as described above.
To observe the effect of phosphorylation in both NLS regions of HMGB1 on the binding to KAP-α1 and on the subcellular localization of HMGB1 in the transfected cells, a number of site-directed mutations in six serines of NLS1 and NLS2 were generated using a HMGB1-GFP fusion construct plasmid (FIG. 5A). Serines 35, 39, 42, 46, 53 within or close to NLS1 and serine 181 at NLS2 were alternatively or totally mutated into alanine or glutamic acid. […] RAW 264.7 cells were co-transfected with a Flag-tagged KAP-α1 plasmid and each mutant HMGB1-GFP plasmid, and immunoprecipitates using anti-GFP (FIG. 5B) or anti-Flag (FIG. 5C) were analyzed with anti-Flag for KAP-α1 or anti-GFP for HMGB1.
In general terms: In western blotting, separated proteins are transferred to a membrane and probed.

No constants are given. Whether binding was seen depends on the method and setting. In cells and extracts the contact can be indirect. Some results given as binding are weak or reduced against the parent protein; the word gives no strength.

Take “six His-tagged wild type HMGB1 (from UniProt P09429 1-215)”: the binding result in experiment [1] was “binds”.

For “wild-type HMGB1-GFP (from UniProt P09429 1-215)”, the binding entry in the experiment with Flag-tagged KAP-α1 is on record as “binds”.
